In the supplement of paper PMC12024529:
Counter-ions that a name gives are not always drawn. Some of the results follow. Baselines shift from plate to plate; read single values as rough.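 The cells are HEK293 lines stably expressing B-domain-deleted factor VIII fused to Gaussia luciferase, either wild type or a misfolding-prone missense mutant. Each score is mean luminescence from triplicate wells minus the DMSO mean, divided by the DMSO standard deviation; a score of 2 or more counts as a hit, and low scores may reflect lower secretion or poorer cell viability.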

These compounds were tested on HEK293 p.N1941S BDD-FVIII-Gluc (assay: secreted FVIII-Gluc luciferase Z-score vs DMSO control; higher = more FVIII-Gluc secretion). Settings: 5 µM; 24 h.

SMILES | secreted FVIII-Gluc luciferase Z-score
CC[C@@H]([C@H](C)O)n1ncn(-c2ccc(N3CCN(c4ccc(OC[C@@H]5CO[C@@](Cn6cncn6)(c6ccc(F)cc6F)C5)cc4)CC3)cc2)c1=O [Posaconazole] | inactive: -9.48
CN1[C@@H]2CC[C@H]1C[C@@H](OC(=O)c1c[nH]c3ccccc13)C2 [Tropisetron] | inactive: -3.03
COC(=O)C1=C(C)NC(C)=C(C(=O)OCCN(C)Cc2ccccc2)C1c1cccc([N+](=O)[O-])c1 (stereo unspecified) [Nicardipine HCl] | inactive: 0.578
O=C1NC(=O)C(c2ccccc2)(c2ccccc2)N1 [Phenytoin (Lepitoin)] | inactive: -0.908
CC(=O)O[C@]1(C(C)=O)CC[C@H]2[C@@H]3C[C@H](C)C4=CC(=O)C=C[C@]4(C)[C@@]3(F)[C@@H](O)C[C@@]21C [Fluorometholone Acetate] | active: 3.89
O=C1CCc2ccc(OCCCCN3CCN(c4cccc(Cl)c4Cl)CC3)cc2N1 [Aripiprazole (Abilify)] | inactive: -2.99
CCCC(=O)Nc1ccc(OCC(O)CNC(C)C)c(C(C)=O)c1 (stereo unspecified) [Acebutolol HCl] | inactive: -0.0545
CCN(CC)C(=S)SSC(=S)N(CC)CC [Disulfiram (Antabuse)] | inactive: 0.075
CN(C)CCN(Cc1ccccc1)c1ccccn1 [Tripelennamine HCl] | inactive: -0.374
CC1=C(/C=C/C(C)=C/C=C/C(C)=C\C(=O)O)C(C)(C)CCC1 [Isotretinoin] | inactive: -0.857
N#CC[C@H](C1CCCC1)n1cc(-c2ncnc3[nH]ccc23)cn1 | inactive: 0.0635
